{
  "source": "patent US11300640B2",
  "about": "“Protein reporters for ultrasensitive detection methods” (The Trustees of the University of Pennsylvania, priority 2017, dated 2022)",
  "assay": "129Xe hyper-CEST NMR of purified MBP and MBP mutants",
  "conditions": "PBS",
  "note": "Values joined by “and” are separate entries in the source; they are usually repeats but may differ in a detail not shown here. Identical values can stand only once.",
  "data": [
    {"substance": "maltose binding protein [MBP]", "values": [
      {"measurement": "Xe(aq) peak width (FWHM)", "setting": "80 μM MBP, 1 mM βCD", "value": "60 ppm and 60 ± 2 ppm"},
      {"measurement": "Xe(aq) peak width (FWHM)", "setting": "80 μM protein, 1 mM maltose", "value": "47 ppm and 47 ± 2 ppm"},
      {"measurement": "Xe@MBP peak width (FWHM)", "setting": "80 μM protein, 1 mM maltose", "value": "35 ppm and 35 ± 2 ppm"},
      {"measurement": "Xe(aq) peak width (FWHM)", "setting": "80 μM protein, 1 mM maltose, listed as WT MBP", "value": 47, "unit": "ppm"},
      {"measurement": "Xe(aq) peak width (FWHM)", "setting": "80 μM protein, no maltose", "value": "42 ± 2", "unit": "ppm"},
      {"measurement": "Xe(aq) peak width (FWHM)", "setting": "80 μM protein, no maltose, listed as WT MBP", "value": 41.8, "unit": "ppm"}
    ]}
  ]
}
